These are yes or no findings as the source states them, for the method shown. For some assays here: Binding seen in cells or lysates may run through a third protein. Some entries that bind do so weakly or less than the wild type. For some assays here: Sequences can lack the tags named with a protein.

By UniProt entry, the sequences of proteins in these tests, tags left out. Where a name states a change or a piece, a line headed by the entry shows the natural chain unless it says otherwise. Residues count along the entry.
UniProt Q96H55: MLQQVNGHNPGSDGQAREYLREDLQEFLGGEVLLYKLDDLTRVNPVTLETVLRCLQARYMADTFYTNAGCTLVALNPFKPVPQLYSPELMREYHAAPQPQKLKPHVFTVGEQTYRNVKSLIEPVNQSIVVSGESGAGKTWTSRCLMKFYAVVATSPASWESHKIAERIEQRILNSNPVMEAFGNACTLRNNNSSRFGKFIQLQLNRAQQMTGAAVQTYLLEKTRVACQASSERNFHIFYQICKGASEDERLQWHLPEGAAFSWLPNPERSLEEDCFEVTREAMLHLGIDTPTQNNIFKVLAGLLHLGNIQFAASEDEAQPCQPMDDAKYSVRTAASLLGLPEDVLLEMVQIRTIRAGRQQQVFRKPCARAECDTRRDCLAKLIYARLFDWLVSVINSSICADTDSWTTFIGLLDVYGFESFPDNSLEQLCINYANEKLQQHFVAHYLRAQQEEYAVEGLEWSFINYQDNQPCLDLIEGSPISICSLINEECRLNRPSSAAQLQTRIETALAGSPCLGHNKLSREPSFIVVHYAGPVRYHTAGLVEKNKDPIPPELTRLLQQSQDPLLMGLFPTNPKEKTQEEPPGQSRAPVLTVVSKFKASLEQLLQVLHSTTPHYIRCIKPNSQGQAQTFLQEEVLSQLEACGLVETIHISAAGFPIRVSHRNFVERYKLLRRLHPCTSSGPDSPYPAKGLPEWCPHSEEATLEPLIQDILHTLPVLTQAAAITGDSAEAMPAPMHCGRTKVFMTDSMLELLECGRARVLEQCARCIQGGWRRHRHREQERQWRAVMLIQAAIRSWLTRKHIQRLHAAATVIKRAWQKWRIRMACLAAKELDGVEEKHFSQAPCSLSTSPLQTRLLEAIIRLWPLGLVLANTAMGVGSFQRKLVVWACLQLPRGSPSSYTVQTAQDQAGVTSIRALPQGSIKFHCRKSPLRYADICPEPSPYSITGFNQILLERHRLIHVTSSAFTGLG
MBP-Myo19^824-970-Flag: residues 824-970 of Q96H55

The text below walks through data of article PMC9106661.

Assay [1] concerns the target MBP-Myo19^824-970-Flag (human) (UniProt Q96H55). Put plainly: pull-down; purified proteins incubated with Myo19^824-970 and Flag antibody in IP lysis buffer (150 mM NaCl, 25 mM Tris-HCl, 0.5% NP-40, pH 7.4) at 4 °C overnight, protein A/G beads, western blot; both purified. On the technique in general: A western blot detects proteins with antibodies after separation by electrophoresis.

Assay [2] concerns the target full length (FL) Myo19 (1-970 aa)-Flag (human) (UniProt Q96H55). Put plainly: co-IP; C-terminally Flag-tagged Myo19 truncations expressed in HEK293T cells, endogenous partners detected by western blot.
In assay [3] the target is Myo19-EGFP (knock-in) (human (endogenous in MDA-MB-231)) (UniProt Q96H55). Put plainly: proximity ligation; Duolink kit; Myo19-EGFP knock-in cells fixed with methanol; anti-GFP and anti-Sam50 antibodies.
The target in assay [4] is Myosin 19 (human (endogenous in MDA-MB-231)) (UniProt Q96H55). Put plainly: co-IP; endogenous proteins in MDA-MB-231 lysate (150 mM NaCl, 25 mM Tris-HCl, 0.5% NP-40, pH 7.4), antibody and protein A/G beads at 4 °C, western blot; WT, Myo19 KO, Sam50 knockdown and Mic60-depleted cells.
Assay [5] deals with Myo19 (BiFC construct) (human) (UniProt Q96H55). Put plainly: split reporter; BiFC in control and Miro1/2 double knockout cells.

B1: His-MBP-MTX3 (protein, UniProt Q5HYI7 1-312)
chain: MAAPLELSCWGGGWGLPSVHSESLVVMAYAKFSGAPLKVNVIDNTWRGSRGDVPILTTEDDMVSQPAKILNFLRKQKYNADYELSAKQGADTLAYIALLEEKLLPAVLHTFWVESDNYFTVTKPWFASQIPFPLSLILPGRMSKGALNRILLTRGQPPLYHLREVEAQIYRDAKECLNLLSNRLGTSQFFFGDTPSTLDAYVFGFLAPLYKVRFPKVQLQEHLKQLSNLCRFCDDILSSYFRLSLGGISPAGQETVDANLQKLTQLVNKESNLIEKMDDNLRQSPQLPPRKLPTLKLTPAEEENNSFQRLSP
In the case of B1, in assay [1], the binding result is “binds”.

B2: Sam50 (protein, UniProt Q9Y512 1-469)
chain: MGTVHARSLEPLPSSGPDFGGLGEEAEFVEVEPEAKQEILENKDVVVQHVHFDGLGRTKDDIIICEIGDVFKAKNLIEVMRKSHEAREKLLRLGIFRQVDVLIDTCQGDDALPNGLDVTFEVTELRRLTGSYNTMVGNNEGSMVLGLKLPNLLGRAEKVTFQFSYGTKETSYGLSFFKPRPGNFERNFSVNLYKVTGQFPWSSLRETDRGMSAEYSFPIWKTSHTVKWEGVWRELGCLSRTASFAVRKESGHSLKSSLSHAMVIDSRNSSILPRRGALLKVNQELAGYTGGDVSFIKEDFELQLNKQLIFDSVFSASFWGGMLVPIGDKPSSIADRFYLGGPTSIRGFSMHSIGPQSEGDYLGGEAYWAGGLHLYTPLPFRPGQGGFGELFRTHFFLNAGNLCNLNYGEGPKAHIRKLAECIRWSYGAGIVLRLGNIARLELNYCVPMGVQTGDRICDGVQFGAGIRFL
Take B2: the binding result in assay [2], in assay [3] and in assay [4] was “binds” throughout.

B3: Sam50 (BiFC construct) (protein, UniProt Q9Y512 1-469)
chain: MGTVHARSLEPLPSSGPDFGGLGEEAEFVEVEPEAKQEILENKDVVVQHVHFDGLGRTKDDIIICEIGDVFKAKNLIEVMRKSHEAREKLLRLGIFRQVDVLIDTCQGDDALPNGLDVTFEVTELRRLTGSYNTMVGNNEGSMVLGLKLPNLLGRAEKVTFQFSYGTKETSYGLSFFKPRPGNFERNFSVNLYKVTGQFPWSSLRETDRGMSAEYSFPIWKTSHTVKWEGVWRELGCLSRTASFAVRKESGHSLKSSLSHAMVIDSRNSSILPRRGALLKVNQELAGYTGGDVSFIKEDFELQLNKQLIFDSVFSASFWGGMLVPIGDKPSSIADRFYLGGPTSIRGFSMHSIGPQSEGDYLGGEAYWAGGLHLYTPLPFRPGQGGFGELFRTHFFLNAGNLCNLNYGEGPKAHIRKLAECIRWSYGAGIVLRLGNIARLELNYCVPMGVQTGDRICDGVQFGAGIRFL
Consider B3, for which the binding entry in assay [5] is “binds”.
